Measured values reported in publication PMC4028237, “GmFT2a and GmFT5a Redundantly and Differentially Regulate Flowering through Interaction with and Upregulation of the bZIP Transcription Factor GmFDL19 in Soybean”.
Results are given in words; binding and its absence hold for the method and conditions named. Binding calls can cover weak binding; strength is not graded here. Sequences can lack the tags named with a protein. For some of these results: Binding seen in cells or lysates may run through a third protein. Values belong to the binder of their own block, whether it stands above or below them.

What was measured:
[1] = target: GmFT5a (GAL4 DNA-binding domain fusion, yeast two-hybrid bait) (soybean (Glycine max)) (UniProt E3NYV9); assay: two-hybrid; GmFT2a or GmFT5a in pGBKT7 as baits, FD-like proteins in pGADT7 as preys; cotransformed into yeast strain Y2H; selection on SD-Leu-Trp-His-Ade with X-alpha-gal, 30°C
[2] = target: GmFT2a (GAL4 DNA-binding domain fusion, yeast two-hybrid bait) (soybean (Glycine max)) (UniProt E3NYP3); assay: as above
[3] = target: GmFT5a fused to the N-terminal half of YFP (BiFC) (soybean (Glycine max)); assay: split reporter; BiFC: FTs fused to the N-terminal half (YN) and FDs to the C-terminal half (YC) of YFP, cotransformed into Arabidopsis protoplasts; YFP fluorescence by confocal microscopy
[4] = target: GmFT2a fused to the N-terminal half of YFP (BiFC) (soybean (Glycine max)); assay: as above

binding [1]: binds | binding [2]: binds
B1: Arabidopsis FD (GAL4 activation domain fusion, yeast two-hybrid prey) (protein, UniProt Q84JK2 1-285)
chain: MLSSAKHQRNHRLSATNKNQTLTKVSSISSSSPSSSSSSSSTSSSSPLPSQDSQAQKRSLVTMEEVWNDINLASIHHLNRHSPHPQHNHEPRFRGQNHHNQNPNSIFQDFLKGSLNQEPAPTSQTTGSAPNGDSTTVTVLYSSPFPPPATVLSLNSGAGFEFLDNQDPLVTSNSNLHTHHHLSNAHAFNTSFEALVPSSSFGKKRGQDSNEGSGNRRHKRMIKNRESAARSRARKQAYTNELELEVAHLQAENARLKRQQDQLKMAAAIQQPKKNTLQRSSTAPF

binding [3]: binds | binding [4]: binds
B2: Arabidopsis FD fused to the C-terminal half of YFP (BiFC) (protein, UniProt Q84JK2 1-285)
chain: B1 chain
